Results reported in publication PMC3033427, “Role of the Small GTPase Rho3 in Golgi/Endosome Trafficking through Functional Interaction with Adaptin in Fission Yeast” (PLoS ONE, 2011).
Residue numbers refer to the chain shown, from its start. In names and notes the source's numbering stands. Results are given in words; binding and its absence hold for the method and conditions named. In cells and extracts the contact can be indirect. Some entries that bind do so weakly or less than the wild type. Where a sequence is shown, tags or fusion partners need not be part of it.

T1: GST-Apl2 (purified full-length Apl2 fused to GST) (S. pombe) (UniProt O43079)
T1 sequence: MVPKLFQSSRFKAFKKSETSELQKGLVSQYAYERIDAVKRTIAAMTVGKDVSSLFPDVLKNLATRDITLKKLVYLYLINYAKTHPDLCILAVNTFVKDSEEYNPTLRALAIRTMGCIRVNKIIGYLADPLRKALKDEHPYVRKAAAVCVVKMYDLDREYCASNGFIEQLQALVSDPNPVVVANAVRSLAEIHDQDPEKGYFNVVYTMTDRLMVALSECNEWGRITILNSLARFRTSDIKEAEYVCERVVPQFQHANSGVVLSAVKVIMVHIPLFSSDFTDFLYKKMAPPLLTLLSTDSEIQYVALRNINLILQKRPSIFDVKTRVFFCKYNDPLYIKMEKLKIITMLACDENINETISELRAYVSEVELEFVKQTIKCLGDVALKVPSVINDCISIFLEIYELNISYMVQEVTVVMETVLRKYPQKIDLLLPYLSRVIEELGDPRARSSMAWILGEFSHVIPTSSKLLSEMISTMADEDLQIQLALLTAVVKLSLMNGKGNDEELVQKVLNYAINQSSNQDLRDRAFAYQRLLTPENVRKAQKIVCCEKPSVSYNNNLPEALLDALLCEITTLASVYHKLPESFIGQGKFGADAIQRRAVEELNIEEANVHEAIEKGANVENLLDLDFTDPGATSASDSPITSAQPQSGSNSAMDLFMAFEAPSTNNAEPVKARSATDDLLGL

T2: Apm1-GST (purified full-length Apm1 fused to GST) (S. pombe) (UniProt Q9HFE5)
T2 sequence: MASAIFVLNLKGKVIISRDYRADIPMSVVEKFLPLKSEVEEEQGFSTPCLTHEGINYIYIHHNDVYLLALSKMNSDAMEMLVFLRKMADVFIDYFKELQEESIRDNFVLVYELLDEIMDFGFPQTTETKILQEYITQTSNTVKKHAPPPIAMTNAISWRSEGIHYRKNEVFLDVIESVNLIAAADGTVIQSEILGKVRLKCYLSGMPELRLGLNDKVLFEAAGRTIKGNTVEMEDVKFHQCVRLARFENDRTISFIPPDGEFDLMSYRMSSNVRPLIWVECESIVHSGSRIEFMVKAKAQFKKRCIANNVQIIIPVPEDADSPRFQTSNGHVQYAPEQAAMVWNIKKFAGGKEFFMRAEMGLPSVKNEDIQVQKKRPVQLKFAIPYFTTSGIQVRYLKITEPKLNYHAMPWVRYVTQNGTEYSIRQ

T3: GST-Aps1 (purified full-length Aps1 fused to GST) (S. pombe) (UniProt Q9P7N2)
T3 sequence: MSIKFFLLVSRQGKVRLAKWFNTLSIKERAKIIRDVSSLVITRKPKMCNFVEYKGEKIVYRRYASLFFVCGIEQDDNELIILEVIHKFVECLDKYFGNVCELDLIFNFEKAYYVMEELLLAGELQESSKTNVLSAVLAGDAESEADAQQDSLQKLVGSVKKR

T4: Apl4-GST (purified full-length Apl4 fused to GST) (S. pombe) (UniProt Q9UU81)
T4 sequence: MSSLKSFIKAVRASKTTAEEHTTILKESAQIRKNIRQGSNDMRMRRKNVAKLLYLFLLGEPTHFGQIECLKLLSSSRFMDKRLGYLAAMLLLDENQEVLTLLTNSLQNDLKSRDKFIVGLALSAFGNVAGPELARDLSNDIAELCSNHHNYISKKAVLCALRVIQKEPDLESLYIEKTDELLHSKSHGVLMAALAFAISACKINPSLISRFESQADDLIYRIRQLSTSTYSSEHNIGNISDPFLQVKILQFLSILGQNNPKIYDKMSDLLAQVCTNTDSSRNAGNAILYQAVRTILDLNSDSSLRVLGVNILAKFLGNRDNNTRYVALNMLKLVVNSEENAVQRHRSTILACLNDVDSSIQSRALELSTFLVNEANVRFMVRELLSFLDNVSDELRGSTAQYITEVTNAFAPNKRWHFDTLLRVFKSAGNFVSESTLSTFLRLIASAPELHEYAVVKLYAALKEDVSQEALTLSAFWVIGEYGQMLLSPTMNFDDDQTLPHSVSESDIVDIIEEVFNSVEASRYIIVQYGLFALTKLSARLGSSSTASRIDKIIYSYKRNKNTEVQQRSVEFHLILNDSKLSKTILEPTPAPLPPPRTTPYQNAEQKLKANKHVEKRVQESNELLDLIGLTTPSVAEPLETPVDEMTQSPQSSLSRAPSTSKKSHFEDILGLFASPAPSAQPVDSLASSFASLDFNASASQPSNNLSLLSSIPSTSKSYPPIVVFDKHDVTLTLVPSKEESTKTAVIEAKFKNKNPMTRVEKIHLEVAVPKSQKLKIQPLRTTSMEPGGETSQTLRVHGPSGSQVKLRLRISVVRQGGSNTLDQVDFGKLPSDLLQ

B1: GFP-Rho3 (wild-type Rho3 fused to GFP) (natural protein, S. pombe, UniProt O13928 1-205, looked up)
chain: MSSCFGSKKKPIYRKIVILGDGAAGKTSLLNVFTKGYFPQVYEPTIFENYIHDIFVDGNSIELSLWDTAGQEEYDQLRSLSYSDTHVIMICFAVDSRDSLENVITKWLPEVSSNCPGVKLVLVALKCDLRGADEEQVDHSKIIDYEEGLAAAKKINAVRYLECSAKLNRGVNEAFTEAARVALAAQPRGTKDGADESHGTGCIIA
notes: Rho3, Rho-family small GTPase of S. pombe (SPAC23C4.08); complete open reading frame amplified from genomic DNA, first methionine as in the Sanger Institute database; The name GFP-Rho3 puts GFP at the N-terminus, but the methods say the ORF 'was ligated to the N-terminus of the GFP'; also called GFP-fused Rho3; source: S. pombe cells, overexpressed from the inducible nmt1 promoter, …
B2: GFP-Rho3T27N (GDP-locked variant of Rho3 fused to GFP) (protein, UniProt O13928 1-205)
chain: B1 chain with T27N
B3: GFP-Rho3E48V (effector domain mutant of Rho3 fused to GFP) (natural protein, S. pombe, UniProt O13928 1-205, looked up)
chain: B1 chain with E48V
notes: Rho3 of S. pombe (SPAC23C4.08), complete open reading frame, Glu48 changed to Val by site-directed mutagenesis; Analogue of the budding yeast rho3-V51 mutant; also called Rho3EV; GFP-Rho3EV; source: S. pombe cells, overexpressed from the inducible nmt1 promoter, in lysate (pull-down); not shown: GFP (S65T), N-terminal, kept
B4: GFP-Rho3G22V (GTP-locked variant of Rho3 fused to GFP) (natural protein, S. pombe, UniProt O13928 1-205, looked up)
chain: B1 chain with G22V
notes: Rho3 of S. pombe (SPAC23C4.08), complete open reading frame, Gly22 changed to Val by site-directed mutagenesis; also called Rho3GV; GFP-Rho3GV; source: S. pombe cells, overexpressed from the inducible nmt1 promoter, in lysate (pull-down); not shown: GFP (S65T), N-terminal, kept

Key:
Experiment in all cases: pull-down; lysates of S. pombe cells expressing GFP-Rho3 or its mutants incubated with purified GST-fused adaptin subunit or control GST; precipitated by glutathione beads, SDS-PAGE, anti-GFP and anti-GST blots; only the target purified
[1] = target: T1, GST-Apl2 (purified full-length Apl2 fused to GST) (S. pombe)
[2] = target: T2, Apm1-GST (purified full-length Apm1 fused to GST) (S. pombe)
[3] = target: T3, GST-Aps1 (purified full-length Aps1 fused to GST) (S. pombe)
[4] = target: T4, Apl4-GST (purified full-length Apl4 fused to GST) (S. pombe)

Binder | binding [1] | binding [2] | binding [3] | binding [4]
B1 | binds | binds | binds | binds
B2 | – | binds weakly | – | –
B3 | – | binds weakly | – | –
B4 | – | binds | – | –
